Laboratory results from US20160354437A1.
Results are given in words; binding and its absence hold for the method and conditions named. For part of these data: In cells and extracts the contact can be indirect. Some binding calls cover weakened binding; strength is not graded here. For part of these data: Sequences can lack the tags named with a protein. Values belong to the binder of their own block, whether it stands above or below them.

The chains behind the UniProt entries cited, without tags or fusion partners. Where a name states a change or a piece, a line headed by the entry shows the natural chain unless it says otherwise. Residues count along the entry.
UniProt Q16666: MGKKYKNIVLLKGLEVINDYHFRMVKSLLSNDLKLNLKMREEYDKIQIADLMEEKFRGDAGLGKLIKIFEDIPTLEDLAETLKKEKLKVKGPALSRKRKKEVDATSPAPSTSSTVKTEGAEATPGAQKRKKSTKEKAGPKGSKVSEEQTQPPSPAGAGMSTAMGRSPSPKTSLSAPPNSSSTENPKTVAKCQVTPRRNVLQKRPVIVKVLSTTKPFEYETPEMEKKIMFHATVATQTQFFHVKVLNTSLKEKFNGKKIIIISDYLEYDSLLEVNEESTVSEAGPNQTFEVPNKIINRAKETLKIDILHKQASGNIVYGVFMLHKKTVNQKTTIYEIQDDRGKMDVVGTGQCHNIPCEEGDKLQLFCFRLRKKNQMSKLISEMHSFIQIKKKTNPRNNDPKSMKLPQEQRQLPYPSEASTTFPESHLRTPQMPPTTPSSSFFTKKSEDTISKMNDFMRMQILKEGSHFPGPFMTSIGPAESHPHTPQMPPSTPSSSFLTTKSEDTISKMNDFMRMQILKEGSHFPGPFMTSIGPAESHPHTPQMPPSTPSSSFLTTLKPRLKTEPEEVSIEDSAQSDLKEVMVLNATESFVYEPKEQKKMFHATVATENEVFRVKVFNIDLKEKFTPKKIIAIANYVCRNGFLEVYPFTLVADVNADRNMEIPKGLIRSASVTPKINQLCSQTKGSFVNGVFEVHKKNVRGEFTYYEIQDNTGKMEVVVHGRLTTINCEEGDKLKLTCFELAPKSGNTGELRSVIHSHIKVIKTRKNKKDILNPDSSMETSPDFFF
PYD of IFI16: residues 1-88 of Q16666
UniProt Q9ULZ3: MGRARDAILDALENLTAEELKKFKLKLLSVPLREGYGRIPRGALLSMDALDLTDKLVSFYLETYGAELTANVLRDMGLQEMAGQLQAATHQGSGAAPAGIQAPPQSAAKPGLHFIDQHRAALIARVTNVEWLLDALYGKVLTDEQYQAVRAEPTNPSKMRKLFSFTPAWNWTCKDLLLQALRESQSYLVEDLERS
ASC^PYD: residues 1-91 of Q9ULZ3

How the values were obtained:
PYD of AIM2 (human) [1] = target: T1, PYD of AIM2 (human) (UniProt O14862); experiment: GST pull-down and co-IP in HEK293 cells (FIG. 31)
T1 sequence (looked up): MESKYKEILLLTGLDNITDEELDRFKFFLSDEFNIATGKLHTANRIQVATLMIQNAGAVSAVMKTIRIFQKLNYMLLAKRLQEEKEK

PYD of IFI16 (human) [2] = target: PYD of IFI16 (human) (UniProt Q16666); experiment: GST pull-down and co-IP in HEK293 cells (FIG. 31)
IFI16 (human) [3] = target: IFI16 (human) (UniProt Q16666); experiment: co-IP in HEK293 cells (FIG. 4b)
IFI16 (human) [4] = target: IFI16 (human) (UniProt Q16666); experiment: immunofluorescence co-localisation in hMΦ (FIG. 4e, f)
IFI16 (human) [5] = target: IFI16 (human) (UniProt Q16666); experiment: conclusion of the pull-down, co-IP and cross-linking experiments
IFI16 (human) [6] = target: IFI16 (human) (UniProt Q16666); experiment: figure title (pull-down, co-IP, co-localisation)
PYD of AIM2 (human) [7] = target: T1, PYD of AIM2 (human); experiment: GST pull-down
PYD of IFI16 (human) [8] = target: PYD of IFI16 (human) (UniProt Q16666); experiment: GST pull-down
ASC^PYD (human) [9] = target: ASC^PYD (human) (UniProt Q9ULZ3); experiment: GST pull-down; co-IP in HEK293 cells
IFI16 (human) [10] = target: IFI16 (human) (UniProt Q16666); experiment: co-IP in HEK293 cells
[11] = target: endogenous AIM2-ASC complex in MVA-infected THP-1 cells (human) (UniProt O14862+Q9ULZ3); experiment: immunoprecipitation of the endogenous complex from THP-1 cells (FIG. 4i)
ASC^PYD (human) [12] = target: ASC^PYD (human) (UniProt Q9ULZ3); experiment: GST pull-down and co-IP in HEK293 cells (FIG. 30)
IFI16 (human) [13] = target: IFI16 (human) (UniProt Q16666); experiment: fluorescence microscopy of hMΦ infected with GFP-POP3 adenovirus (FIG. 35)
AIM2 from BMDM (mouse) [14] = target: T2, AIM2 from BMDM (mouse) (UniProt Q91VJ1); experiment: figure title; GST pull-down from BMDM lysates
T2 sequence (looked up): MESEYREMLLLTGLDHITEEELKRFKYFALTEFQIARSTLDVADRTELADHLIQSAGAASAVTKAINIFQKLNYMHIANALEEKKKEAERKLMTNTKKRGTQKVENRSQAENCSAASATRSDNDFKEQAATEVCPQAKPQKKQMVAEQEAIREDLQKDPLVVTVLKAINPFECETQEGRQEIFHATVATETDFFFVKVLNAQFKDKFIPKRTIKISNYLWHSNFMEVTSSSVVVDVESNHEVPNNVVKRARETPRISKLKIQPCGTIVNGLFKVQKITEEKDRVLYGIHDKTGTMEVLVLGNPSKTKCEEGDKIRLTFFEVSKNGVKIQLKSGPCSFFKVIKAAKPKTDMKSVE

AIM2 from BMDM (mouse) [15] = target: T2, AIM2 from BMDM (mouse); experiment: GST pull-down from BMDM lysates (FIG. 11a)
PYD of AIM2 (human) [16] = target: T1, PYD of AIM2 (human); experiment: GST pull-down (FIG. 4a)
PYD of IFI16 (human) [17] = target: PYD of IFI16 (human) (UniProt Q16666); experiment: GST pull-down (FIG. 4a)
AIM2 (human) = target: T3, AIM2 (human) (UniProt O14862); experiment: GST pull-down from THP-1 lysates (FIG. 4g)
T3 sequence (looked up): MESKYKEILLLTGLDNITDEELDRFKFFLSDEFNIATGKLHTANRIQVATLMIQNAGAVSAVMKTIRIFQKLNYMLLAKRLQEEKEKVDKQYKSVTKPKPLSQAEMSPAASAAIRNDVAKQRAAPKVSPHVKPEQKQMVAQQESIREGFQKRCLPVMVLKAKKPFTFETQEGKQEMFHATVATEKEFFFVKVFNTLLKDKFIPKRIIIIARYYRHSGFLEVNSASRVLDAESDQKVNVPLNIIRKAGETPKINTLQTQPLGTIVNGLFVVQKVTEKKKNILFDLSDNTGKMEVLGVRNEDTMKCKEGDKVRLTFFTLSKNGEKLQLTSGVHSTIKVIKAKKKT

IFI16 (human) [18] = target: IFI16 (human) (UniProt Q16666); experiment: GST pull-down from THP-1 lysates (FIG. 4g)
mouse ASC (mouse) [19] = target: T4, mouse ASC (mouse) (UniProt Q9EPB4); experiment: GST pull-down from BMDM lysates
T4 sequence (looked up): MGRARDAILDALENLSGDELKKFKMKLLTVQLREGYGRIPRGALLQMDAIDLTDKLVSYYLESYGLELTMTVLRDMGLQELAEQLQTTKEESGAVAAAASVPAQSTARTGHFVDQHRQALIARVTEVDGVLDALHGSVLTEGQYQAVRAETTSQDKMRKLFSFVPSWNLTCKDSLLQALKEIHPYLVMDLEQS

ASC (human) [20] = target: ASC (human) (UniProt Q9ULZ3); experiment: GST pull-down from THP-1 lysates (FIG. 18a)
mouse ASC (mouse) [21] = target: T4, mouse ASC (mouse); experiment: GST pull-down from BMDM lysates (FIG. 22c)
ASC (human) [22] = target: ASC (human) (UniProt Q9ULZ3); experiment: GST pull-down from THP-1 lysates
ASC^PYD (human), Q9ULZ3 = experiment: co-IP with HA antibody in HEK293 cells (FIG. 18d); details: remark: other sources report otherwise

binding (PYD of AIM2 (human) [1]): binds | binding (PYD of IFI16 (human) [2]): binds | binding (IFI16 (human) [3]): binds | binding (IFI16 (human) [4]): binds | binding (IFI16 (human) [5]): binds | binding (IFI16 (human) [6]): binds | binding (PYD of AIM2 (human) [7]): binds | binding (PYD of IFI16 (human) [8]): binds | binding (ASC^PYD (human) [9]): binds | binding (IFI16 (human) [10]): binds | binding [11]: binds | binding (ASC^PYD (human) [12]): binds | binding (IFI16 (human) [13]): binds
B1: POP3 (protein, not shown: large carriers)
chain: MESKYKEILLLTSLDNITDEELDRFKCFLPDEFNIATGKLHTLNSTSSQLDLKRWHGVCSEEDRIFQKLNYMLVAKCLREEQETGICGSPSSARSVSQSRLGLSFHGISGNAC

binding (AIM2 from BMDM (mouse) [14]): binds | binding (AIM2 from BMDM (mouse) [15]): binds | binding (PYD of AIM2 (human) [16]): binds | binding (PYD of IFI16 (human) [17]): binds | binding (AIM2 (human)): binds | binding (IFI16 (human) [18]): binds
B2: GST-POP3 (protein, not shown: a dimerising Fc or GST)
chain: MESKYKEILLLTSLDNITDEELDRFKCFLPDEFNIATGKLHTLNSTSSQLDLKRWHGVCSEEDRIFQKLNYMLVAKCLREEQETGICGSPSSARSVSQSRLGLSFHGISGNAC

binding (mouse ASC (mouse) [19]): binds | binding (ASC (human) [20]): binds | binding (mouse ASC (mouse) [21]): binds | binding (ASC (human) [22]): binds
B3: GST-POP1 (protein, not shown: a dimerising Fc or GST)
chain: MGTKREAILKVLENLTPEELKKFKMKLGTVPLREGFERIPRGALGQLDIVDLTDKLVASYYEDYAAELVVAVLRDMRMLEEAARLQRAA

binding (ASC^PYD (human), Q9ULZ3): binds
B4: GFP-POP1, Q8WXC3 1-89 (protein, not shown: large carriers)
chain: MGTKREAILKVLENLTPEELKKFKMKLGTVPLREGFERIPRGALGQLDIVDLTDKLVASYYEDYAAELVVAVLRDMRMLEEAARLQRAA
